Results are given in words; binding and its absence hold for the method and conditions named. In cells and extracts the contact can be indirect. Binding can be weak; no strength is given.
Target: TRIB3-HA (human) (UniProt Q96RU7)
Assay: co-IP; HEK293T cells co-transfected with AKT1-Myc and TRIB3-HA constructs; cell extracts IP with an anti-HA Ab

The chains behind the UniProt entries cited, without tags or fusion partners. Where a name states a change or a piece, a line headed by the entry shows the natural chain unless it says otherwise.
UniProt Q96RU7: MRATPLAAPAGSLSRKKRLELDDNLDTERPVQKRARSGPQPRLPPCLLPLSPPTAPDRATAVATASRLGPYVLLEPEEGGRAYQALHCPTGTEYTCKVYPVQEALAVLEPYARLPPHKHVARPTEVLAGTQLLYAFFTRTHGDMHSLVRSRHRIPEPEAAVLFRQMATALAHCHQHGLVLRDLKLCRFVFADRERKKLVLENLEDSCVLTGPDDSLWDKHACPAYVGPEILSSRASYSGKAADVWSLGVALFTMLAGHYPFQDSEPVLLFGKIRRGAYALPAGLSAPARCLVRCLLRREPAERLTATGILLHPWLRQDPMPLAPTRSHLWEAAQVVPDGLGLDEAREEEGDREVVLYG
UniProt P31749: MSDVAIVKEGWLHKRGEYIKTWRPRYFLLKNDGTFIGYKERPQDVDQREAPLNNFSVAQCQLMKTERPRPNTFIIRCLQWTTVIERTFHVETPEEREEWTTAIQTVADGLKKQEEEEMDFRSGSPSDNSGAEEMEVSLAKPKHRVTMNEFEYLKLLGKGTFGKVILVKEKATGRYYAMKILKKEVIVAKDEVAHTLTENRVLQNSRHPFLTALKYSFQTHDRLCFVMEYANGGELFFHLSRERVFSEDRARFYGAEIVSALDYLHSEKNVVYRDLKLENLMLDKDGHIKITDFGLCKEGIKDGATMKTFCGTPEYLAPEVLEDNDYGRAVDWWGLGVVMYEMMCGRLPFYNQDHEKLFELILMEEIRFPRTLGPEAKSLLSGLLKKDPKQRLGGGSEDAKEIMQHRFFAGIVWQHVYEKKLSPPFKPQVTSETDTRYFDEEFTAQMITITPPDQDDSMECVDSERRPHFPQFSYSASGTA

binding: binds weakly
Substance: AKT1-Myc △Ae mutant (from UniProt P31749)

Source: paper PMC6915745, “TRIB3 supports breast cancer stemness by suppressing FOXO1 degradation and enhancing SOX2 transcription” (Nature Communications, 2019)
